Results deposited as PubChem BioAssay AID1053208 (Peter MacCallum Cancer Centre, 2014).

- Test: 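Genes whose silencing cuts survival of bone tumour cells only with doxorubicin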 (primary screen)
- System: mouse osteosarcoma cells, early-passage culture from an engineered mouse model of fibroblastic bone tumour
- Reagent: siRNA pool against mouse genes, 40 nM
- Time to read-out: about 120 h (48 h before drug, then 72 h with drug)
- Challenge: doxorubicin 100 nM for 72 h, roughly 30-40% inhibitory dose
- Detection: 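Viability read as ATP luminescence after 72 h of 100 nM doxorubicin or none, duplicate wells averaged, scaled to non-targeting siRNA, then expressed as robust z-scores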
- Reading the numbers: viability z-score with doxorubicin: higher = more viable cells under doxorubicin; viability z-score without drug: higher = more viable cells with knock-down alone
- Call rule: 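Called active if knock-down leaves viability unchanged without drug (z within -2 to 2) but lowers it with doxorubicin (z at or under -2)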
This is one part, drawn at random, of about 17,000 reagents tested. In the full data, 788 (4.7%) are marked active. 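Calls rest on z-score classes alone; an extra cut-off of viability at most 70% of control was not applied to them.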 Reagents against one gene are numbered here. Some reagents were tested in more than one well and are listed for each. Not all columns of the deposit are shown.

{"gene": "Ksr2", "pool no.": 1, "combined z-score class": "no change with or without drug", "viability z-score with doxorubicin": 1.12, "viability z-score without drug": 1.01, "call": "inactive"}
{"gene": "Patz1", "pool no.": 1, "combined z-score class": "no change with or without drug", "viability z-score with doxorubicin": -0.22, "viability z-score without drug": 0.34, "call": "inactive"}
{"gene": "Or4c116", "pool no.": 1, "combined z-score class": "high cell count without drug only", "viability z-score with doxorubicin": 1.57, "viability z-score without drug": 2.7, "call": "inactive"}
{"gene": "Aipl1", "pool no.": 1, "combined z-score class": "no change with or without drug", "viability z-score with doxorubicin": -0.79, "viability z-score without drug": 1.52, "call": "inactive"}
{"gene": "Cdc42se2", "pool no.": 1, "combined z-score class": "no change with or without drug", "viability z-score with doxorubicin": 0.67, "viability z-score without drug": -1.01, "call": "inactive"}
{"gene": "Cdc42se2", "pool no.": 1, "combined z-score class": "no change with or without drug", "viability z-score with doxorubicin": 1.46, "viability z-score without drug": 1.35, "call": "inactive"}
{"gene": "Wdtc1", "pool no.": 1, "combined z-score class": "no change with or without drug", "viability z-score with doxorubicin": 0.79, "viability z-score without drug": 0, "call": "inactive"}
{"gene": "Ache", "pool no.": 1, "combined z-score class": "no change with or without drug", "viability z-score with doxorubicin": -0.22, "viability z-score without drug": -0.17, "call": "inactive"}
{"gene": "Ptgfr", "pool no.": 1, "combined z-score class": "no change with or without drug", "viability z-score with doxorubicin": -0.22, "viability z-score without drug": -1.18, "call": "inactive"}
{"gene": "Commd8", "pool no.": 1, "combined z-score class": "no change with or without drug", "viability z-score with doxorubicin": 1.91, "viability z-score without drug": 1.35, "call": "inactive"}
{"gene": "Arl2", "pool no.": 1, "combined z-score class": "no change with or without drug", "viability z-score with doxorubicin": -1.01, "viability z-score without drug": 0.17, "call": "inactive"}
{"gene": "Chd2", "pool no.": 1, "combined z-score class": "no change with or without drug", "viability z-score with doxorubicin": -0.9, "viability z-score without drug": -0.34, "call": "inactive"}
{"gene": "Fbxo17", "pool no.": 1, "combined z-score class": "no change with or without drug", "viability z-score with doxorubicin": -1.57, "viability z-score without drug": -0.17, "call": "inactive"}
{"gene": "Nde1", "pool no.": 1, "combined z-score class": "no change with or without drug", "viability z-score with doxorubicin": -0.11, "viability z-score without drug": -0.51, "call": "inactive"}
{"gene": "Zfp879", "pool no.": 1, "combined z-score class": "low cell count with doxorubicin only", "viability z-score with doxorubicin": -2.02, "viability z-score without drug": -0.34, "call": "active"}
{"gene": "Fcho1", "pool no.": 1, "combined z-score class": "no change with or without drug", "viability z-score with doxorubicin": 0.67, "viability z-score without drug": 0.84, "call": "inactive"}
{"gene": "Serinc2", "pool no.": 1, "combined z-score class": "no change with or without drug", "viability z-score with doxorubicin": -1.8, "viability z-score without drug": 0, "call": "inactive"}
{"gene": "Eif3j1", "pool no.": 1, "combined z-score class": "no change with or without drug", "viability z-score with doxorubicin": -0.67, "viability z-score without drug": 0.84, "call": "inactive"}
{"gene": "Fads2", "pool no.": 1, "combined z-score class": "no change with or without drug", "viability z-score with doxorubicin": 0.56, "viability z-score without drug": 0.17, "call": "inactive"}
{"gene": "Fam53b", "pool no.": 1, "combined z-score class": "no change with or without drug", "viability z-score with doxorubicin": 0.67, "viability z-score without drug": 1.18, "call": "inactive"}
{"gene": "Or2w6", "pool no.": 1, "combined z-score class": "no change with or without drug", "viability z-score with doxorubicin": 1.01, "viability z-score without drug": 0.17, "call": "inactive"}
{"gene": "Trpc3", "pool no.": 1, "combined z-score class": "no change with or without drug", "viability z-score with doxorubicin": -0.45, "viability z-score without drug": 0, "call": "inactive"}
{"gene": "2810407A14Rik", "pool no.": 1, "combined z-score class": "high cell count without drug only", "viability z-score with doxorubicin": 1.91, "viability z-score without drug": 2.19, "call": "inactive"}
{"gene": "Sem1", "pool no.": 1, "combined z-score class": "low cell count with and without drug", "viability z-score with doxorubicin": -2.7, "viability z-score without drug": -3.04, "call": "inactive"}
{"gene": "Snx10", "pool no.": 1, "combined z-score class": "no change with or without drug", "viability z-score with doxorubicin": -1.69, "viability z-score without drug": -0.51, "call": "inactive"}
{"gene": "Arpc1a", "pool no.": 1, "combined z-score class": "no change with or without drug", "viability z-score with doxorubicin": -0.56, "viability z-score without drug": 0.67, "call": "inactive"}
{"gene": "Carmil1", "pool no.": 1, "combined z-score class": "no change with or without drug", "viability z-score with doxorubicin": -1.35, "viability z-score without drug": -1.69, "call": "inactive"}
{"gene": "Carmil1", "pool no.": 2, "combined z-score class": "no change with or without drug", "viability z-score with doxorubicin": 0.67, "viability z-score without drug": 0.51, "call": "inactive"}
{"gene": "Olfr257", "pool no.": 1, "combined z-score class": "no change with or without drug", "viability z-score with doxorubicin": -0.11, "viability z-score without drug": 1.18, "call": "inactive"}
{"gene": "Spag17", "pool no.": 1, "combined z-score class": "high cell count without drug only", "viability z-score with doxorubicin": 1.69, "viability z-score without drug": 2.19, "call": "inactive"}
{"gene": "Col17a1", "pool no.": 1, "combined z-score class": "no change with or without drug", "viability z-score with doxorubicin": 0.9, "viability z-score without drug": -0.84, "call": "inactive"}
{"gene": "Mettl4", "pool no.": 1, "combined z-score class": "low cell count with doxorubicin only", "viability z-score with doxorubicin": -2.7, "viability z-score without drug": -0.51, "call": "active"}
{"gene": "Atf2", "pool no.": 1, "combined z-score class": "no change with or without drug", "viability z-score with doxorubicin": -1.57, "viability z-score without drug": -1.18, "call": "inactive"}
{"gene": "Poglut1", "pool no.": 1, "combined z-score class": "no change with or without drug", "viability z-score with doxorubicin": -0.67, "viability z-score without drug": -1.18, "call": "inactive"}
{"gene": "Stxbp4", "pool no.": 1, "combined z-score class": "no change with or without drug", "viability z-score with doxorubicin": -0.67, "viability z-score without drug": -0.17, "call": "inactive"}
{"gene": "Stxbp4", "pool no.": 2, "combined z-score class": "no change with or without drug", "viability z-score with doxorubicin": -0.79, "viability z-score without drug": -0.17, "call": "inactive"}

Targets above whose target name starts with F or f:
{"gene": "Fbxo17", "pool no.": 1, "combined z-score class": "no change with or without drug", "viability z-score with doxorubicin": -1.57, "viability z-score without drug": -0.17, "call": "inactive"}
{"gene": "Fcho1", "pool no.": 1, "combined z-score class": "no change with or without drug", "viability z-score with doxorubicin": 0.67, "viability z-score without drug": 0.84, "call": "inactive"}
{"gene": "Fads2", "pool no.": 1, "combined z-score class": "no change with or without drug", "viability z-score with doxorubicin": 0.56, "viability z-score without drug": 0.17, "call": "inactive"}
{"gene": "Fam53b", "pool no.": 1, "combined z-score class": "no change with or without drug", "viability z-score with doxorubicin": 0.67, "viability z-score without drug": 1.18, "call": "inactive"}
